# Results reported in the supplement of paper PMC8728848.
# Some of the results follow.
# B1: PX15642A-pgi-501-20-501 (Parabacteroides gingivalis) (protein)
# chain: CELDRDPEGKDFQQPYTSFVQTKQNRDGLYALLRNTENPRMHFYQELQSDMYCTTITDGNSLAPFVNWDLGILNDHGRADEDEVSGIAGYYFVYNRLNQQANAFVNNTEAALQNQVYKNSTEIANAKSFLAEGKVLQALAIWRLMDRFSFHESVTEVNSGAKDLGVILLKEYNPGYIGPRATKAQCYDYILSRLSEAIEVLPENRESVLYVSRDYAYALRARIYLALGEYGKAAADAKMVVDKYPLIGAADASEFENIYRSDANNPEIIFRGFASATLGSFTATTLNGAAPAGKDIKYNPSAVPFQWVVDLYENEDFRKSVYIAKVVKKDKGYLVNKFLEDKAYRDVQDKPNLKVGARYFSVAEVYLILVESALQTGDTPTAEKYLKALSKARGAEVSVVNMEALQAERTRELIGEGSRLRDMVRWSIPNNHDAFETQPGLEGFANTTPLKAQAPVGFYAYTWEFPQRDRQTNPQLIKNWPI
# Tests used:
# Experiment in all cases: glycan array binding signal (z-score within array); higher = stronger binding
# Details in all cases: glycan notation: IUPAC condensed, linker removed
# [1] = target: Neu5Ac(a2-6)Gal(b1-3)GlcNAc(b1-3)[Gal(b1-4)GlcNAc(b1-6)]Gal(b1-4)Glc
# Method in brief: (§1)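 The Consortium for Functional Glycomics database supplied 3228 glycan arrays, of which those lacking an available protein sequence were dropped. The binding signal, a within-array Z-score, was averaged across arrays of the same protein sequence and across linkers. Negative scores can be read as non-binding.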
# [2] = target: Neu5Ac(a2-6)Gal(b1-4)Glc
# Method in brief: as §1
# [3] = target: Neu5Ac(a2-6)Gal(b1-4)GlcNAc
# Method in brief: as §1
# [4] = target: Neu5Ac(a2-6)Gal(b1-4)GlcNAc(b1-2)Man
# Method in brief: as §1
# [5] = target: Neu5Ac(a2-6)Gal(b1-4)GlcNAc(b1-2)Man(a1-3)Man(b1-4)GlcNAc(b1-4)GlcNAc
# Method in brief: as §1
# [6] = target: Neu5Ac(a2-6)Gal(b1-4)GlcNAc(b1-2)Man(a1-3)[Gal(b1-4)GlcNAc(b1-2)Man(a1-6)]Man(b1-4)GlcNAc(b1-4)GlcNAc
# Method in brief: as §1
# [7] = target: Neu5Ac(a2-6)Gal(b1-4)GlcNAc(b1-2)Man(a1-3)[GlcNAc(b1-2)Man(a1-6)]Man(b1-4)GlcNAc(b1-4)GlcNAc
# Method in brief: as §1
# [8] = target: Neu5Ac(a2-6)Gal(b1-4)GlcNAc(b1-2)Man(a1-3)[GlcNAc(b1-4)][Neu5Ac(a2-6)Gal(b1-4)GlcNAc(b1-2)Man(a1-6)]Man(b1-4)GlcNAc(b1-4)GlcNAc
# Method in brief: as §1
# [9] = target: Neu5Ac(a2-6)Gal(b1-4)GlcNAc(b1-2)Man(a1-3)[Man(a1-6)]Man(b1-4)GlcNAc(b1-4)GlcNAc
# Method in brief: as §1
# [10] = target: Neu5Ac(a2-6)Gal(b1-4)GlcNAc(b1-2)Man(a1-3)[Neu5Ac(a2-3)Gal(b1-4)GlcNAc(b1-2)Man(a1-6)]Man(b1-4)GlcNAc(b1-4)GlcNAc
# Method in brief: as §1
# [11] = target: Neu5Ac(a2-6)Gal(b1-4)GlcNAc(b1-2)Man(a1-3)[Neu5Ac(a2-6)Gal(b1-4)GlcNAc(b1-2)Man(a1-6)]Man(b1-4)GlcNAc(b1-4)GlcNAc
# Method in brief: as §1
# [12] = target: Neu5Ac(a2-6)Gal(b1-4)GlcNAc(b1-2)Man(a1-3)[Neu5Ac(a2-6)Gal(b1-4)GlcNAc(b1-2)Man(a1-6)]Man(b1-4)GlcNAc(b1-4)[Fuc(a1-6)]GlcNAc
# Method in brief: as §1
# [13] = target: Neu5Ac(a2-6)Gal(b1-4)GlcNAc(b1-2)Man(a1-6)Man(b1-4)GlcNAc(b1-4)GlcNAc
# Method in brief: as §1
# [14] = target: Neu5Ac(a2-6)Gal(b1-4)GlcNAc(b1-2)Man(a1-6)[Gal(b1-4)GlcNAc(b1-2)Man(a1-3)]Man(b1-4)GlcNAc(b1-4)GlcNAc
# Method in brief: as §1
# [15] = target: Neu5Ac(a2-6)Gal(b1-4)GlcNAc(b1-2)Man(a1-6)[GlcNAc(b1-2)Man(a1-3)]Man(b1-4)GlcNAc(b1-4)GlcNAc
# Method in brief: as §1
# [16] = target: Neu5Ac(a2-6)Gal(b1-4)GlcNAc(b1-2)Man(a1-6)[Man(a1-3)]Man(b1-4)GlcNAc(b1-4)GlcNAc
# Method in brief: as §1
# [17] = target: Neu5Ac(a2-6)Gal(b1-4)GlcNAc(b1-2)[Neu5Ac(a2-6)Gal(b1-4)GlcNAc(b1-4)]Man(a1-3)[GlcNAc(b1-4)][Neu5Ac(a2-6)Gal(b1-4)GlcNAc(b1-2)[Neu5Ac(a2-6)Gal(b1-4)GlcNAc(b1-6)]Man(a1-6)]Man(b1-4)GlcNAc(b1-4)GlcNAc
# Method in brief: as §1
# [18] = target: Neu5Ac(a2-6)Gal(b1-4)GlcNAc(b1-2)[Neu5Ac(a2-6)Gal(b1-4)GlcNAc(b1-4)]Man(a1-3)[GlcNAc(b1-4)][Neu5Ac(a2-6)Gal(b1-4)GlcNAc(b1-4)Man(a1-6)]Man(b1-4)GlcNAc(b1-4)GlcNAc
# Method in brief: as §1
# [19] = target: Neu5Ac(a2-6)Gal(b1-4)GlcNAc(b1-2)[Neu5Ac(a2-6)Gal(b1-4)GlcNAc(b1-6)]Man(a1-6)[Neu5Ac(a2-6)Gal(b1-4)GlcNAc(b1-2)Man(a1-3)][GlcNAc(b1-4)]Man(b1-4)GlcNAc(b1-4)GlcNAc
# Method in brief: as §1
# [20] = target: Neu5Ac(a2-6)Gal(b1-4)GlcNAc(b1-3)Gal(b1-3)GlcNAc
# Method in brief: as §1
# [21] = target: Neu5Ac(a2-6)Gal(b1-4)GlcNAc(b1-3)Gal(b1-4)GlcNAc
# Method in brief: as §1
# [22] = target: Neu5Ac(a2-6)Gal(b1-4)GlcNAc(b1-3)Gal(b1-4)GlcNAc(b1-2)Man(a1-3)[Neu5Ac(a2-6)Gal(b1-4)GlcNAc(b1-3)Gal(b1-4)GlcNAc(b1-2)Man(a1-6)]GalNAc
# Method in brief: as §1
# [23] = target: Neu5Ac(a2-6)Gal(b1-4)GlcNAc(b1-3)Gal(b1-4)GlcNAc(b1-3)Gal(b1-4)GlcNAc
# Method in brief: as §1
# [24] = target: Neu5Ac(a2-6)Gal(b1-4)GlcNAc(b1-3)Gal(b1-4)GlcNAc(b1-3)Gal(b1-4)GlcNAc(b1-2)Man(a1-3)[Neu5Ac(a2-6)Gal(b1-4)GlcNAc(b1-3)Gal(b1-4)GlcNAc(b1-3)Gal(b1-4)GlcNAc(b1-2)Man(a1-6)]GalNAc
# Method in brief: as §1
# [25] = target: Neu5Ac(a2-6)Gal(b1-4)GlcNAc(b1-3)Gal(b1-4)GlcNAc(b1-3)GalNAc
# Method in brief: as §1
# [26] = target: Neu5Ac(a2-6)Gal(b1-4)GlcNAc(b1-3)Gal(b1-4)GlcNAc(b1-3)[Neu5Ac(a2-6)Gal(b1-4)GlcNAc(b1-3)Gal(b1-4)GlcNAc(b1-6)]GalNAc
# Method in brief: as §1
# [27] = target: Neu5Ac(a2-6)Gal(b1-4)GlcNAc(b1-3)Gal(b1-4)GlcNAc(b1-6)[Gal(b1-3)]GalNAc
# Method in brief: as §1
# [28] = target: Neu5Ac(a2-6)Gal(b1-4)GlcNAc(b1-3)Gal(b1-4)[Fuc(a1-3)]GlcNAc(b1-3)Gal(b1-4)[Fuc(a1-3)]GlcNAc
# Method in brief: as §1
# [29] = target: Neu5Ac(a2-6)Gal(b1-4)GlcNAc(b1-3)GalNAc
# Method in brief: as §1
# [30] = target: Neu5Ac(a2-6)Gal(b1-4)GlcNAc(b1-3)[Neu5Ac(a2-6)Gal(b1-4)GlcNAc(b1-6)]GalNAc
# Method in brief: as §1
# [31] = target: Neu5Ac(a2-6)Gal(b1-4)GlcNAc(b1-6)GalNAc
# Method in brief: as §1
# [32] = target: Neu5Ac(a2-6)Gal(b1-4)GlcNAc(b1-6)[Gal(b1-3)GlcNAc(b1-3)]Gal(b1-4)Glc
# Method in brief: as §1
# [33] = target: Neu5Ac(a2-6)Gal(b1-4)GlcNAc(b1-6)[Gal(b1-3)]GalNAc
# Method in brief: as §1
# [34] = target: Neu5Ac(a2-6)Gal(b1-4)GlcNAc6S
# Method in brief: as §1
# [35] = target: Neu5Ac(a2-6)GalNAc
# Method in brief: as §1
# [36] = target: Neu5Ac(a2-6)GalNAc(b1-4)GlcNAc
# Method in brief: as §1
# [37] = target: Neu5Ac(a2-6)GalNAc(b1-4)GlcNAc6S
# Method in brief: as §1
# [38] = target: Neu5Ac(a2-6)GlcNAc(b1-4)GlcNAc
# Method in brief: as §1
binder,measurement,setting,value
B1,glycan array binding signal (z-score),[1],-0.73
same,glycan array binding signal (z-score),[2],-0.022
same,glycan array binding signal (z-score),[3],-0.264
same,glycan array binding signal (z-score),[4],-0.844
same,glycan array binding signal (z-score),[5],1.01
same,glycan array binding signal (z-score),[6],-0.565
same,glycan array binding signal (z-score),[7],-0.482
same,glycan array binding signal (z-score),[8],-0.519
same,glycan array binding signal (z-score),[9],-0.971
same,glycan array binding signal (z-score),[10],0.773
same,glycan array binding signal (z-score),[11],0.036
same,glycan array binding signal (z-score),[12],-0.924
same,glycan array binding signal (z-score),[13],0.401
same,glycan array binding signal (z-score),[14],-0.724
same,glycan array binding signal (z-score),[15],0.319
same,glycan array binding signal (z-score),[16],-0.607
same,glycan array binding signal (z-score),[17],0.098
same,glycan array binding signal (z-score),[18],0.114
same,glycan array binding signal (z-score),[19],-0.568
same,glycan array binding signal (z-score),[20],0.537
same,glycan array binding signal (z-score),[21],-0.221
same,glycan array binding signal (z-score),[22],0.657
same,glycan array binding signal (z-score),[23],0.644
same,glycan array binding signal (z-score),[24],2.23
same,glycan array binding signal (z-score),[25],-0.926
same,glycan array binding signal (z-score),[26],0.497
same,glycan array binding signal (z-score),[27],-0.139
same,glycan array binding signal (z-score),[28],-0.278
same,glycan array binding signal (z-score),[29],-0.516
same,glycan array binding signal (z-score),[30],-0.25
same,glycan array binding signal (z-score),[31],0.747
same,glycan array binding signal (z-score),[32],-0.099
same,glycan array binding signal (z-score),[33],-0.714
same,glycan array binding signal (z-score),[34],-0.049
same,glycan array binding signal (z-score),[35],-0.126
same,glycan array binding signal (z-score),[36],-0.81
same,glycan array binding signal (z-score),[37],0.286
same,glycan array binding signal (z-score),[38],0.131

# Reprinted at random: three records from the list.
binder,measurement,setting,value
B1,glycan array binding signal (z-score),[31],0.747
same,glycan array binding signal (z-score),[14],-0.724
same,glycan array binding signal (z-score),[1],-0.73
